# Results: PubChem BioAssay AID504648 (National Center for Advancing Translational Sciences (NCATS), 2011)
# The whole screen tested about 390,000 compounds, of which about 610 (0.16%) were called active. The shares of active, inactive and inconclusive entries below differ from those in the screen. Calls follow the shape of the dose curve; as a rule, active = well fitted inhibition curve with a large enough effect; inconclusive = small, poorly fitted or top-dose-only effect, or effect the other way, or another doubt; inactive = no such curve, though single readings can be large or run the other way. A potency beside an inconclusive call is a rough fit, not a confirmed value.
# Assay: Nrf2 qHTS screen for inhibitors: counterscreen for cytotoxicity
# Conditions: A549 ARE-Fluc cells, CellTiter-Fluor viability, 18-24 h; series mostly up to 46 µM
# Method in brief: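 Cytotoxicity counterscreen: CellTiter-Fluor fluorescence was measured in A549 ARE_Fluc cells after 18-24 h of compound exposure in a concentration series. The subsequent BugLite luminescent read reports ARE-luciferase activity.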
# Potency is read from the fitted curve at half-maximal effect.
row,Compound,Potency
1,CCOC(=O)c1cccc(NC(=O)CC2Oc3ccccc3NC2=O)c1 (stereo not given),"inconclusive: 0.92 µM [activator, partial curve, poor fit]"
2,O=C1c2ccccc2C2=Nc3ccccc3SC(c3cccc(F)c3)C12 (stereo not given),"inconclusive: 23.1 µM [falling, single point]"
3,O=C1N/C(=N/NC(=O)c2cccc3ccccc23)S/C1=C\c1ccccc1OCc1ccccc1,"inconclusive: 29.1 µM [falling, single point]"
4,CC(=O)c1cc2c(cc1NS(=O)(=O)c1ccc(C)cc1)OCCO2,"inconclusive: 16.4 µM [falling, partial curve, poor fit]"
5,Cc1cnc(NC(=O)c2cc(S(=O)(=O)N(C)C)ccc2N2CCCC2)s1,"inconclusive: 20.6 µM [falling, single point]"
6,CN(C)CCn1c2ccccc2c2nc3ccc([N+](=O)[O-])cc3cc21,"inconclusive: 20.6 µM [falling, single point]"
7,CCCCc1c(C)nn(-c2nnc3c4ccccc4n(CC)c3n2)c1C,"inconclusive: 16.4 µM [falling, single point]"
8,CC(C)(C)c1ccc(C(=O)NC(=O)COC(=O)CCS(=O)(=O)c2ccccc2)cc1,inactive
9,CCCOc1ccccc1C1NC(=O)NC(C)=C1C(=O)OCCOC (stereo not given),inactive
10,COc1ccc(-c2ccc([C@H]3[C@H]4C=CC[C@@H](C)[C@@H]4C(=O)N3Cc3ccccc3)c(F)c2)cc1C,inactive
11,c1ccc2sc(SN3CCOCC3)nc2c1,inactive
12,O=C(Nc1ccc(-c2nnc3n2CCCCC3)cc1)c1ccco1,inactive
13,Cc1cc(C)c2nc(N(CCCN(C)C)C(=O)c3ccc4c(c3)CCCC4)sc2c1,"inconclusive: 23.1 µM [falling, partial curve, poor fit]"
14,CCc1ccc(C2=C(C)C(N3CCC(C(=O)Nc4ccc(F)cc4)CC3)=NS2(=O)=O)cc1,inactive
15,COc1cc(Cl)c(C)cc1NC(=O)c1ccccc1NC(=O)CN1CCOCC1,inactive
16,Cc1nc2sc(C(c3ccc(Br)cc3)N3CC(C)OC(C)C3)c(O)n2n1 (stereo not given),inactive
17,CC(C)CC(=O)NC(Nc1ccc([N+](=O)[O-])cc1)C(Cl)(Cl)Cl (stereo not given),"inconclusive: 29.1 µM [falling, single point]"
18,CC[C@@]1(c2cccc(C)c2)C(=O)N(C(=O)OC)N1C(=O)OC,inactive
19,COC(=O)c1cc(S(=O)(=O)N2CCN(c3cccc(Cl)c3)CC2)c[nH]1,inactive
20,CC(=O)Nc1ccccc1OCC(=O)c1cc(C)n(Cc2cccs2)c1C,"inconclusive: 29.1 µM [falling, single point]"
21,COC(=O)c1cnn(-c2ccc(Cl)cc2)c1/C=N/NC(N)=S,"inconclusive: 25.9 µM [falling, partial curve, poor fit]"
22,CN(CCNC(=O)CCNC(=O)Cn1ccc2ccccc2c1=O)Cc1ccccc1,"inconclusive: 6.51 µM [activator, partial curve, poor fit]"
23,COc1ccccc1C(=O)NCCC(=O)NCc1ccncc1,"inconclusive: 4.11 µM [falling, single point]"

# Fetched one by one from the entries so far (3):
row,Compound,Potency
2,O=C1c2ccccc2C2=Nc3ccccc3SC(c3cccc(F)c3)C12 (stereo not given),"inconclusive: 23.1 µM [falling, single point]"
1,CCOC(=O)c1cccc(NC(=O)CC2Oc3ccccc3NC2=O)c1 (stereo not given),"inconclusive: 0.92 µM [activator, partial curve, poor fit]"
6,CN(C)CCn1c2ccccc2c2nc3ccc([N+](=O)[O-])cc3cc21,"inconclusive: 20.6 µM [falling, single point]"

# Carrying on.

row,Compound,Potency
1,C/C(=N\NC(=O)c1cc2ccccc2cc1O)c1ccccn1,inactive
2,Nc1c(S(=O)(=O)c2ccccc2)c2nc3ccccc3nc2n1/N=C/c1cccc(O)c1,inactive
3,CCN(CC)c1ccc2cc(-c3nnc(-c4ccccc4)o3)c(=O)oc2c1,"inconclusive: 2.06 µM [activator, partial curve, poor fit]"
4,O=C(NC1CC(=O)N(c2cccc(F)c2)C1)c1ccc(S(=O)(=O)N2CCCCC2)cc1 (stereo not given),inactive
5,Cc1ccc(NC(=S)N(CCN(C)C)C(C)c2ccco2)c(C)c1 (stereo not given),"inconclusive: 20.6 µM [activator, partial curve, poor fit]"
6,CCN1CC2=C(OC(N)=C(C#N)C2c2cccs2)/C(=C/c2cccs2)C1 (stereo not given),inactive
7,CCCN(CCC)c1ccc(/C=C/c2ccc3cc(OCC)ccc3n2)cc1,"inconclusive: 20.6 µM [activator, partial curve]"
8,C1CCC(C(CC2CCCCN2)C2CCCCC2)CC1 (stereo not given),"inconclusive: 29.1 µM [falling, single point]"
9,O=[N+]([O-])C(/C=C(\Cl)[N+](=O)[O-])=C(N1CCCCC1)N1CCCCC1,active: 23.1 µM
10,Cc1cc(Cl)ccc1NC(=O)CS(=O)(=O)c1cccc2nsnc12,"inconclusive: 29.1 µM [falling, single point]"
11,COC(=O)c1ccc(NC(=O)CN(Cc2ccc(Cl)cc2)S(C)(=O)=O)cc1,"inconclusive: 7.31 µM [falling, single point]"
12,COc1[nH]c(/N=C/c2ccco2)c(C#N)c1C#N,inactive
13,CCc1ccc(NCc2cc3ccc(OC)cc3n(CC(=O)Nc3ccccc3OC)c2=O)cc1,inactive
14,COc1cc(OC)c(CN2CCC(Cc3ccccc3)CC2)cc1Br,"inconclusive: 16.4 µM [falling, single point]"
15,CCN(C(=O)Cn1cc(C(C)=O)c2ccccc21)c1ccccc1,"inconclusive: 20.6 µM [falling, single point]"
16,CC(=O)CCc1oc2c([N+](=O)[O-])cccc2c1-c1ccc(C)o1,"inconclusive: 5.8 µM [activator, single point]"
17,CCOc1ccc(N(CC)C(=O)c2cc3c(s2)-c2ccc(Cl)cc2SC3)cc1,"inconclusive: 29.1 µM [falling, single point]"
18,NC(=O)CN1CCN(CCN2C(=O)c3cccc4cccc(c34)C2=O)CC1,inactive
19,COc1ccc(C(=O)c2cc([N+](=O)[O-])ccc2N2CCCC2)cc1,"inconclusive: 20.6 µM [falling, single point]"
20,O=C(Nc1cc(Cl)ccc1O)c1snnc1-c1ccccc1,"inconclusive: 29.1 µM [falling, single point]"
21,COc1cc(Cl)ccc1OCc1cc(C(=O)N2C[C@]3(C)C[C@H]2CC(C)(C)C3)no1,"inconclusive: 5.17 µM [activator, single point]"
22,Oc1ccccc1CNCCCNCc1ccccc1O,"inconclusive: 20.6 µM [falling, single point]"
